Here are results for two substances from paper PMC8976915.

Sequences of proteins named here, by UniProt entry; tags and fusion partners are left off.
UniProt Q13283: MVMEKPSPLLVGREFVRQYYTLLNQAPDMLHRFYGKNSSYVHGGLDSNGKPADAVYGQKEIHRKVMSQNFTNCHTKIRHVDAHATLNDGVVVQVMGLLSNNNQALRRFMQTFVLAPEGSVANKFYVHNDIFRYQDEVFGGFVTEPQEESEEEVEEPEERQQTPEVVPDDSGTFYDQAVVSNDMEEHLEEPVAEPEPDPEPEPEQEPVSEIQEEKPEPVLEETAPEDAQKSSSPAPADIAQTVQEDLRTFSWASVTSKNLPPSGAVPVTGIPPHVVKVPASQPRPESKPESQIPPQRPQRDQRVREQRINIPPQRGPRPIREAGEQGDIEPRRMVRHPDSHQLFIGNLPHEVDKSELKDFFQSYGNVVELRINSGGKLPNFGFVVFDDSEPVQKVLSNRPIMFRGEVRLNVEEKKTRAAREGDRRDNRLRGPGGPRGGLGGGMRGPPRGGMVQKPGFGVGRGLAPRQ
UniProt Q9NR30: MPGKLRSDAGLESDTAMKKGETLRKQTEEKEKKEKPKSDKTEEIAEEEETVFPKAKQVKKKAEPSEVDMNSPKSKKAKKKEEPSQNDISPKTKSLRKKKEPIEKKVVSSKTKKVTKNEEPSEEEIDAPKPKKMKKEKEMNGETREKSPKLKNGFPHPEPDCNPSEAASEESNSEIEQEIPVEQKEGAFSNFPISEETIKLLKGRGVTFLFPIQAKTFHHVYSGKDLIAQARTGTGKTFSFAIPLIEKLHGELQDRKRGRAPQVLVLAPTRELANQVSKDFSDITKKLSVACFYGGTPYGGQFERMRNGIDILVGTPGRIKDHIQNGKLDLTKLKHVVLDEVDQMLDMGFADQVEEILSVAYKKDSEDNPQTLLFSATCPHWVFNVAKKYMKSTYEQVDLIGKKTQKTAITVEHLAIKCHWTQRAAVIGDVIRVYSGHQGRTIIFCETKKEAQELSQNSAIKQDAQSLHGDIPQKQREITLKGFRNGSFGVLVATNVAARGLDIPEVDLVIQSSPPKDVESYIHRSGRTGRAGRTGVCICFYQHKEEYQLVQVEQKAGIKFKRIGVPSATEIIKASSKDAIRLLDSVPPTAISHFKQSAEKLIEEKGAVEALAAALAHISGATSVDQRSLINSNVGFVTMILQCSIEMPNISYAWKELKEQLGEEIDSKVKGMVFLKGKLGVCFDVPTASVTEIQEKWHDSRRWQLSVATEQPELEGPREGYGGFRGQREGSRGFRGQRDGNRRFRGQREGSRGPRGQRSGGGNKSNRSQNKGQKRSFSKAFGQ
UniProt Q15717: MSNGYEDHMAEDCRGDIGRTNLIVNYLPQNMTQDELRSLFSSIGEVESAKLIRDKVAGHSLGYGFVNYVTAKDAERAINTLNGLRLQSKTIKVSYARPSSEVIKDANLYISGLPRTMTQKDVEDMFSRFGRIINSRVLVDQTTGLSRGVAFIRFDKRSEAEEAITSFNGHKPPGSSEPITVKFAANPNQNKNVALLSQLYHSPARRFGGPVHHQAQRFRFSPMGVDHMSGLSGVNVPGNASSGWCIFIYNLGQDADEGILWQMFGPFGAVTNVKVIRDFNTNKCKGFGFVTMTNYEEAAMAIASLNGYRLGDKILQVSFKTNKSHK

No constants are given. Whether binding was seen depends on the method and setting. Binding seen in cells or lysates may run through a third protein. Here binding means that the protein was enriched with, or labelled near, the bait; the list need not be complete.

The test concerns the target GFP-G3BP1 (Ras-GTPase activating SH3 domain-binding protein 1) (UniProt Q13283). Put plainly: affinity purification with mass spectrometry; U2OS GFP-G3BP1 cells treated with VFS for 1 h; granule-enriched fraction made by sequential centrifugation; IP with anti-GFP antibody (control IgG) and Protein A Dynabeads at 4°C; washes with SG lysis buffer + 2 M urea, + 300 mM potassium acetate, then TE; LC-MS/MS, MaxQuant; hits at ≥1 log2-fold over control IgG.

For DDX21 (from UniProt Q9NR30 1-783), the binding result is recorded as “binds”.

Turning to ELAVL1 (from UniProt Q15717 1-326), the binding result is reported as “binds”.
